PubChem BioAssay AID652259 | Drosophila RNAi Screening Center | 2013

Purpose: 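Knock-downs that push a Wingless-driven reporter up or down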 (primary screen)
System: Drosophila clone 8 imaginal disc epithelial cells
Reagent: long dsRNA against Drosophila genes
Challenge: pathway stimulated by co-transfected Wingless expression plasmid
Detection: 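Firefly luciferase from a tcf-site Wingless reporter, measured alongside co-transfected Renilla luciferase that tracks transfection; pathway stimulated by a Wingless plasmid; the firefly-to-Renilla ratio is not deposited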
Scale: firefly reporter light: higher = more Wg reporter light, before normalisation; Renilla control light: higher = more transfected or surviving cells
Rule for the call: 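a knock-down is a candidate when at least two out of four statistical tests show it departing from its plate mean; one test alone signals a weak candidate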
Meaning of the calls: active = candidate regulator (raises or lowers reporter); inactive = not a candidate
The deposit covers about 22,000 reagents; below is a random part of those that have a named target and a result. Of all reagents, 233 (1.1%) are marked active. 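Light values are raw, unnormalised plate reads; the ratio scores behind the reporter calls were not deposited.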 Names joined by + are all predicted targets of the reagent. Not stated in the record: the amount of reagent, the time to read-out, the dose of the treatment.

Depletion of CR6900 [DRSC20018] resulted in: firefly reporter light, replicate 1 = 17580; Renilla control light, replicate 1 = 10864; inactive.
Silencing of RpL7 [DRSC03417] came out at: reporter change call, replicate 1 = Wg reporter activity raised; firefly reporter light, replicate 1 = 4880; firefly reporter light, replicate 2 = 6227; Renilla control light, replicate 1 = 707; Renilla control light, replicate 2 = 2160; inactive.
After knock-down of CG43271 [DRSC01614] the results were firefly reporter light, replicate 1 = 20883; Renilla control light, replicate 1 = 9127; inactive.
For CG43271 [DRSC21741] the deposit lists firefly reporter light, replicate 1 = 5.41e5; firefly reporter light, replicate 2 = 4.04e5; Renilla control light, replicate 1 = 3.44e5; Renilla control light, replicate 2 = 1.82e5; inactive.
Against CG30496 [DRSC06805], the entry reads firefly reporter light, replicate 1 = 19121; Renilla control light, replicate 1 = 5273; inactive.
With knock-down of Ance-4 [DRSC07104], the screen gave firefly reporter light, replicate 1 = 2048; firefly reporter light, replicate 2 = 6651; Renilla control light, replicate 1 = 953; Renilla control light, replicate 2 = 2870; inactive.
Hsp70Aa + Hsp70Ab [DRSC21246] showed firefly reporter light, replicate 1 = 8899; Renilla control light, replicate 1 = 5067; inactive.
After knock-down of Taf8 [DRSC20363], the screen gave reporter change call, replicate 1 = Wg reporter activity raised; firefly reporter light, replicate 1 = 31445; Renilla control light, replicate 1 = 7995; active.
Knock-down of shps [DRSC14614] gave: firefly reporter light, replicate 1 = 13190; Renilla control light, replicate 1 = 13915; inactive.
Knock-down of ssp5 [DRSC14955] resulted in: firefly reporter light, replicate 1 = 9025; Renilla control light, replicate 1 = 3440; inactive.
For U3-55K [DRSC05982], the values are firefly reporter light, replicate 1 = 5548; Renilla control light, replicate 1 = 2824; inactive.
After knock-down of Acyp [DRSC01861] the results were firefly reporter light, replicate 1 = 3366; firefly reporter light, replicate 2 = 6608; Renilla control light, replicate 1 = 1145; Renilla control light, replicate 2 = 2896; inactive.
Silencing of CG43673 + CG43672 [DRSC19452] gave: firefly reporter light, replicate 1 = 22903; Renilla control light, replicate 1 = 8682; inactive.
With knock-down of CG43673 + CG43672 [DRSC20108] the results were firefly reporter light, replicate 1 = 17191; Renilla control light, replicate 1 = 6882; inactive.
Knock-down of CG13751 [DRSC06422] came out at: firefly reporter light, replicate 1 = 3383; firefly reporter light, replicate 2 = 6023; Renilla control light, replicate 1 = 770; Renilla control light, replicate 2 = 2867; inactive.
Knock-down of CG32302 [DRSC08340] gave: firefly reporter light, replicate 1 = 4124; Renilla control light, replicate 1 = 1921; inactive.
Mct1 [DRSC18681] scored firefly reporter light, replicate 1 = 12456; Renilla control light, replicate 1 = 9585; inactive.
Knock-down of jet [DRSC03116] resulted in: firefly reporter light, replicate 1 = 10397; Renilla control light, replicate 1 = 4705; inactive.
CG5762 [DRSC15869] scored firefly reporter light, replicate 1 = 2483; firefly reporter light, replicate 2 = 4871; Renilla control light, replicate 1 = 1043; Renilla control light, replicate 2 = 1418; inactive.
CG42700 [DRSC06292] showed firefly reporter light, replicate 1 = 5272; Renilla control light, replicate 1 = 619; inactive.
CG42700 [DRSC06293] scored firefly reporter light, replicate 1 = 8252; Renilla control light, replicate 1 = 3443; inactive.
Silencing of chn [DRSC06086] gave: firefly reporter light, replicate 1 = 14041; Renilla control light, replicate 1 = 3190; inactive.
With knock-down of CG4364 [DRSC02742], the record shows firefly reporter light, replicate 1 = 5111; Renilla control light, replicate 1 = 1659; inactive.
HP1D3csd [DRSC19548] scored firefly reporter light, replicate 1 = 17506; Renilla control light, replicate 1 = 9780; inactive.
CG11076 [DRSC17197] gave firefly reporter light, replicate 1 = 14760; Renilla control light, replicate 1 = 10748; inactive.

4 of these entries, reformatted.
{"Gene":"Hsp70Aa + Hsp70Ab","amplicon":"DRSC21246","firefly reporter light, replicate 1":8899,"Renilla control light, replicate 1":5067,"call":"inactive"}
{"Gene":"Taf8","amplicon":"DRSC20363","reporter change call, replicate 1":"Wg reporter activity raised","firefly reporter light, replicate 1":31445,"Renilla control light, replicate 1":7995,"call":"active"}
{"Gene":"shps","amplicon":"DRSC14614","firefly reporter light, replicate 1":13190,"Renilla control light, replicate 1":13915,"call":"inactive"}
{"Gene":"ssp5","amplicon":"DRSC14955","firefly reporter light, replicate 1":9025,"Renilla control light, replicate 1":3440,"call":"inactive"}
